The list shows a part of the results. Single values are uncertain, as repeats are few or missing.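 Test system: a mixed pool of 41 HAP1 clones in which 61 cancer-associated proteins carry fluorescent tags inserted into introns, and each clone is identified from its image pattern. Read-outs are compared with DMSO-treated control wells. The BRD4 degrader dBET6 served as the positive control.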

By UniProt entry, the sequences of proteins in these tests, tags left out.
UniProt O14980, whole entry: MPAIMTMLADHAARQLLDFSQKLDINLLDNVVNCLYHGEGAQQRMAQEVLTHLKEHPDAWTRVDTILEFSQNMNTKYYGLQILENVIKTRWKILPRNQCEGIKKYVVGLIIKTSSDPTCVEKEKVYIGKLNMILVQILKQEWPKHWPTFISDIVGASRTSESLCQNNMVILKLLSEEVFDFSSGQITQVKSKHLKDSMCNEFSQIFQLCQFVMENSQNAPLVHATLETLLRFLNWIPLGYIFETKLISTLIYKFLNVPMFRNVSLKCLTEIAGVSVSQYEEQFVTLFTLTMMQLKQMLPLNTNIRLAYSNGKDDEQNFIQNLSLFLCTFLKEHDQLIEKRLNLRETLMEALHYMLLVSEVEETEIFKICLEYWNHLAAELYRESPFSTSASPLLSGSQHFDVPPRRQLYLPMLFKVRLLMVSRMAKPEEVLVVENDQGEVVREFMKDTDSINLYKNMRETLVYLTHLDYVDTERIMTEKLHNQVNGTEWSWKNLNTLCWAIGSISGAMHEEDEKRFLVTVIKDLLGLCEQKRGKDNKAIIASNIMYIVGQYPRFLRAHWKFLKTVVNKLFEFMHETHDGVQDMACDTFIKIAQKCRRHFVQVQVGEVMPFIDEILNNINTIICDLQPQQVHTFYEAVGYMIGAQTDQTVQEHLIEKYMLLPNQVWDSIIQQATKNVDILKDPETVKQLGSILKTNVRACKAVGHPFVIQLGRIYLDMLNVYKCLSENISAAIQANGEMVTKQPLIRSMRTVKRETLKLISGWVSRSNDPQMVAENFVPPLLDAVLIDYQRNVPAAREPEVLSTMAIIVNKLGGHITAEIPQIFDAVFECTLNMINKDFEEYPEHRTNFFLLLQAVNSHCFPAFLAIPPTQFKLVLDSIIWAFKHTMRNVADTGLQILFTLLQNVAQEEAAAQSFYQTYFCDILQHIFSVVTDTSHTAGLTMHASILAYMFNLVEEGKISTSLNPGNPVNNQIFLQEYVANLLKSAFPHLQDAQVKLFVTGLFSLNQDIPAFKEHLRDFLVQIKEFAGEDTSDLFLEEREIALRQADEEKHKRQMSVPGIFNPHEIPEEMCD

One assay deals with XPO1 (intron 15 mScarlet tag, HAP1) (UniProt O14980). Description: XPO1 fluorescence intensity change vs DMSO (log2 fold change); higher = more XPO1 protein. To be noted: 6 h.
With `O=C(Nc1ccncc1)N1CCc2c(Br)cccc2C1` (10 µM), the “XPO1 fluorescence intensity change (log2)” value worked out at 0.0641.

With `Cc1ccc(C)c(Nc2cc(C)nc(-c3ccccc3O)n2)c1` (10 µM), the “XPO1 fluorescence intensity change (log2)” value was -0.0601.

In the case of `COC[P+](c1ccccc1)(c1ccccc1)c1ccccc1` (10 µM), the “XPO1 fluorescence intensity change (log2)” value turned out to be 0.0899.

For `COc1ccc(CNS(=O)(=O)c2ccc(OC)c3ccccc23)cc1` (10 µM), the “XPO1 fluorescence intensity change (log2)” value worked out at 0.011.

As to `COc1cccc(N2CCN(C(=O)c3cccnc3N3CCCC3)CC2)c1` (1 µM), the “XPO1 fluorescence intensity change (log2)” value was -0.0245.

As for `Nc1ccc(C(=O)Nc2cccnc2)cc1` (10 µM), the “XPO1 fluorescence intensity change (log2)” value was 0.0212.

Turning to `O=C(NCc1ccc(F)cc1)c1nnc(CCl)s1` (10 µM), the “XPO1 fluorescence intensity change (log2)” value amounted to 0.332.

Consider `Cc1noc(C)c1COc1ccc(C(=O)Nc2ccc(OC(F)F)cc2)cc1` (10 µM), for which the “XPO1 fluorescence intensity change (log2)” value turned out to be 0.111.

For `COc1ccc(C)cc1C(C)Nc1ncnc2ccsc12` (stereo not drawn) (10 µM), the “XPO1 fluorescence intensity change (log2)” value is -0.0344.

On to `COc1cc(C)c(S(=O)(=O)NCCc2c(C)[nH]c3ccc(C)cc23)cc1C` (10 µM), for which the “XPO1 fluorescence intensity change (log2)” value is -0.203.

Regarding `Cn1cc(CC2CCN(C(=O)NCCOc3cccnc3)C2)cn1` (stereo not drawn) (1 µM), the “XPO1 fluorescence intensity change (log2)” value is 0.0593.

Turning to `COc1cccc2c1N(CC(=O)Nc1ccc(S(C)(=O)=O)cc1)CCC2` (10 µM), the “XPO1 fluorescence intensity change (log2)” value is -0.0108.

Take `CN(C)c1ccc(C(=NC(=O)c2ccc(NS(=O)(=O)c3cccs3)cc2)c2ccc(N(C)C)cc2)cc1` (10 µM): the “XPO1 fluorescence intensity change (log2)” value is -0.253.

Take `Cc1noc(C)c1CSc1nc2sccc2c(=O)n1-c1ccccc1` (1 µM): the “XPO1 fluorescence intensity change (log2)” value was -0.00146.

With `COCCOC(=O)c1c(C)[nH]c(C(=O)Nc2ccccc2Cl)c1C` (1 µM), the “XPO1 fluorescence intensity change (log2)” value is 0.0445.

`Oc1c(C(Nc2cccc(Cl)c2)c2ccccn2)ccc2cccnc12` (stereo not drawn) (10 µM): the “XPO1 fluorescence intensity change (log2)” value came out at 0.095.

For the molecule `COc1ccc2cc(C(C)C(=O)NCc3ccc(F)cc3)ccc2c1` (stereo not drawn) (10 µM), the “XPO1 fluorescence intensity change (log2)” value was -0.0867.

Consider `CC(C(=O)N1CCc2[nH]c3ccc(Br)cc3c2C1)n1cnc2ccccc21` (stereo not drawn) (1 µM), for which the “XPO1 fluorescence intensity change (log2)” value stood at 0.00884.

As for `COc1ccc(-c2cc(-c3c(O)ccc4ccccc34)[nH]n2)cc1` (10 µM), the “XPO1 fluorescence intensity change (log2)” value worked out at 0.104.

For `COc1cc(C(=O)Nc2nc(-c3ccccn3)cs2)cc(OC)c1OC` (10 µM), the “XPO1 fluorescence intensity change (log2)” value is -0.17.

In the case of `CC(C)(C)c1cc(NN)n2ncc(-c3ccccc3)c2n1` (10 µM), the “XPO1 fluorescence intensity change (log2)” value was found to be 0.209.

As to `CN(CCCc1cc(-c2ccccc2)no1)C(=O)Nc1ccncc1` (1 µM), the “XPO1 fluorescence intensity change (log2)” value was 0.0176.

On to `COC(=O)C1=C(C)NC(C)=C(C#N)C1c1cccs1` (stereo not drawn) (10 µM), for which the “XPO1 fluorescence intensity change (log2)” value was 0.104.

Regarding `COc1ccc(-n2c(-c3ccccc3)c[n+]3ccccc23)cc1` (10 µM), the “XPO1 fluorescence intensity change (log2)” value was -0.0214.

As to `Cc1cccc(N2CCN(C(=O)c3c(-c4ccccc4)noc3C)CC2)c1C` (10 µM), the “XPO1 fluorescence intensity change (log2)” value is -0.261.

With `O=C(Nc1nc(-c2ccccn2)cs1)c1ccc2c(c1)OCCCO2` (10 µM), the “XPO1 fluorescence intensity change (log2)” value was -0.243.

For `Cc1ccc(-c2nnc(Sc3ncnc4sccc34)o2)cc1` (10 µM), the “XPO1 fluorescence intensity change (log2)” value was 0.0181.

In the case of `CN(CCOc1ccccc1F)C(=O)c1cc2c(nc3sccn32)s1` (10 µM), the “XPO1 fluorescence intensity change (log2)” value amounted to 0.165.

`O=C(CSc1nc2ccccc2[nH]1)Nc1ccc(Cl)cn1` (10 µM): the “XPO1 fluorescence intensity change (log2)” value is -0.0584.

As to `Nc1nc(CCl)nc2sc3c(c12)CCCC3` (10 µM), the “XPO1 fluorescence intensity change (log2)” value was -0.0653.

For `O=C(NCCc1ccccn1)Nc1ccc(-n2ccnn2)cc1` (10 µM), the “XPO1 fluorescence intensity change (log2)” value was found to be 0.151.

On to `N=c1n(CCOc2ccccc2)c2ccccc2n1Cc1ccccc1F` (10 µM), for which the “XPO1 fluorescence intensity change (log2)” value amounted to 0.0243.

With `O=C(NC1CCN(Cc2ccccc2)C1)c1ccc(OC(F)(F)F)cc1` (stereo not drawn) (10 µM), the “XPO1 fluorescence intensity change (log2)” value stood at 0.0343.

For `CCn1cc(NC(=O)c2cc(-c3ccccc3OC)on2)cn1` (1 µM), the “XPO1 fluorescence intensity change (log2)” value was -0.238.

Turning to `Nc1nc2[nH]cc(CCc3ccc(C(=O)N[C@@H](CCC(=O)O)C(=O)O)cc3)c2c(=O)[nH]1` [pemetrexed] (1 µM), the “XPO1 fluorescence intensity change (log2)” value was determined as 0.0613.

`CC(O)CNCc1c2ccccc2c(Cl)c2ccccc12` (stereo not drawn) (1 µM): the “XPO1 fluorescence intensity change (log2)” value was determined as 0.108.

Take `CN(C)c1ccc(C(=NC(=O)c2cccc(S(=O)(=O)N3CC4(C)CC3CC(C)(C)C4)c2)c2ccc(N(C)C)cc2)cc1` (stereo not drawn) (10 µM): the “XPO1 fluorescence intensity change (log2)” value is -0.137.

Take `CC(=O)NCCc1nc2ccccc2n1CCCOc1cc(C)ccc1C(C)C` (10 µM): the “XPO1 fluorescence intensity change (log2)” value was -0.11.

For the molecule `Cc1sc(NC(=O)CCNC(=O)Cc2ccccc2)nc1-c1ccc(F)cc1` (10 µM), the “XPO1 fluorescence intensity change (log2)” value was -0.0901.

The target of a further assay is BRD4 (intron 10 mScarlet tag, HAP1) (UniProt O60885). Description: BRD4 median nuclear fluorescence intensity change vs DMSO (log2 fold change); higher = more BRD4 protein. To be noted: 6 h.
Take `O=C(Nc1ccncc1)N1CCc2c(Br)cccc2C1` (10 µM): the “BRD4 median nuclear fluorescence intensity change (log2)” value was determined as 0.0488.

Regarding `Cc1ccc(C)c(Nc2cc(C)nc(-c3ccccc3O)n2)c1` (10 µM), the “BRD4 median nuclear fluorescence intensity change (log2)” value amounted to 0.0968.

Consider `COC[P+](c1ccccc1)(c1ccccc1)c1ccccc1` (10 µM), for which the “BRD4 median nuclear fluorescence intensity change (log2)” value was 0.147.

In the case of `COc1ccc(CNS(=O)(=O)c2ccc(OC)c3ccccc23)cc1` (10 µM), the “BRD4 median nuclear fluorescence intensity change (log2)” value came out at 0.0728.

With `COc1cccc(N2CCN(C(=O)c3cccnc3N3CCCC3)CC2)c1` (1 µM), the “BRD4 median nuclear fluorescence intensity change (log2)” value was -0.0242.

Take `Nc1ccc(C(=O)Nc2cccnc2)cc1` (10 µM): the “BRD4 median nuclear fluorescence intensity change (log2)” value was 0.198.

For `O=C(NCc1ccc(F)cc1)c1nnc(CCl)s1` (10 µM), the “BRD4 median nuclear fluorescence intensity change (log2)” value was 0.0741.

As for `Cc1noc(C)c1COc1ccc(C(=O)Nc2ccc(OC(F)F)cc2)cc1` (10 µM), the “BRD4 median nuclear fluorescence intensity change (log2)” value amounted to 0.0692.

For `COc1ccc(C)cc1C(C)Nc1ncnc2ccsc12` (stereo not drawn) (10 µM), the “BRD4 median nuclear fluorescence intensity change (log2)” value was found to be 0.0861.

On to `COc1cc(C)c(S(=O)(=O)NCCc2c(C)[nH]c3ccc(C)cc23)cc1C` (10 µM), for which the “BRD4 median nuclear fluorescence intensity change (log2)” value was determined as 0.135.

On to `Cn1cc(CC2CCN(C(=O)NCCOc3cccnc3)C2)cn1` (stereo not drawn) (1 µM), for which the “BRD4 median nuclear fluorescence intensity change (log2)” value is -0.0717.

`COc1cccc2c1N(CC(=O)Nc1ccc(S(C)(=O)=O)cc1)CCC2` (10 µM): the “BRD4 median nuclear fluorescence intensity change (log2)” value stood at 0.0261.

For `CN(C)c1ccc(C(=NC(=O)c2ccc(NS(=O)(=O)c3cccs3)cc2)c2ccc(N(C)C)cc2)cc1` (10 µM), the “BRD4 median nuclear fluorescence intensity change (log2)” value is 0.0701.

Take `Cc1noc(C)c1CSc1nc2sccc2c(=O)n1-c1ccccc1` (1 µM): the “BRD4 median nuclear fluorescence intensity change (log2)” value was found to be 0.212.

`COCCOC(=O)c1c(C)[nH]c(C(=O)Nc2ccccc2Cl)c1C` (1 µM): the “BRD4 median nuclear fluorescence intensity change (log2)” value was 0.0431.

Consider `Oc1c(C(Nc2cccc(Cl)c2)c2ccccn2)ccc2cccnc12` (stereo not drawn) (10 µM), for which the “BRD4 median nuclear fluorescence intensity change (log2)” value stood at 0.0913.

`COc1ccc2cc(C(C)C(=O)NCc3ccc(F)cc3)ccc2c1` (stereo not drawn) (10 µM): the “BRD4 median nuclear fluorescence intensity change (log2)” value was -0.0709.

Consider `CC(C(=O)N1CCc2[nH]c3ccc(Br)cc3c2C1)n1cnc2ccccc21` (stereo not drawn) (1 µM), for which the “BRD4 median nuclear fluorescence intensity change (log2)” value is 0.0257.

For the molecule `COc1ccc(-c2cc(-c3c(O)ccc4ccccc34)[nH]n2)cc1` (10 µM), the “BRD4 median nuclear fluorescence intensity change (log2)” value is -0.0816.

Turning to `COc1cc(C(=O)Nc2nc(-c3ccccn3)cs2)cc(OC)c1OC` (10 µM), the “BRD4 median nuclear fluorescence intensity change (log2)” value was -0.129.

As for `CC(C)(C)c1cc(NN)n2ncc(-c3ccccc3)c2n1` (10 µM), the “BRD4 median nuclear fluorescence intensity change (log2)” value came out at 0.151.

In the case of `CN(CCCc1cc(-c2ccccc2)no1)C(=O)Nc1ccncc1` (1 µM), the “BRD4 median nuclear fluorescence intensity change (log2)” value worked out at 0.0573.

Regarding `COC(=O)C1=C(C)NC(C)=C(C#N)C1c1cccs1` (stereo not drawn) (10 µM), the “BRD4 median nuclear fluorescence intensity change (log2)” value stood at 0.0149.

As for `COc1ccc(-n2c(-c3ccccc3)c[n+]3ccccc23)cc1` (10 µM), the “BRD4 median nuclear fluorescence intensity change (log2)” value was 0.122.

Take `Cc1cccc(N2CCN(C(=O)c3c(-c4ccccc4)noc3C)CC2)c1C` (10 µM): the “BRD4 median nuclear fluorescence intensity change (log2)” value is -0.031.

Regarding `O=C(Nc1nc(-c2ccccn2)cs1)c1ccc2c(c1)OCCCO2` (10 µM), the “BRD4 median nuclear fluorescence intensity change (log2)” value came out at 0.063.

On to `Cc1ccc(-c2nnc(Sc3ncnc4sccc34)o2)cc1` (10 µM), for which the “BRD4 median nuclear fluorescence intensity change (log2)” value was found to be 0.0501.

`CN(CCOc1ccccc1F)C(=O)c1cc2c(nc3sccn32)s1` (10 µM): the “BRD4 median nuclear fluorescence intensity change (log2)” value turned out to be 0.00964.

Turning to `O=C(CSc1nc2ccccc2[nH]1)Nc1ccc(Cl)cn1` (10 µM), the “BRD4 median nuclear fluorescence intensity change (log2)” value turned out to be 0.0511.

Take `Nc1nc(CCl)nc2sc3c(c12)CCCC3` (10 µM): the “BRD4 median nuclear fluorescence intensity change (log2)” value stood at 0.0077.

On to `O=C(NCCc1ccccn1)Nc1ccc(-n2ccnn2)cc1` (10 µM), for which the “BRD4 median nuclear fluorescence intensity change (log2)” value is -0.0713.

As for `N=c1n(CCOc2ccccc2)c2ccccc2n1Cc1ccccc1F` (10 µM), the “BRD4 median nuclear fluorescence intensity change (log2)” value stood at 0.178.

With `O=C(NC1CCN(Cc2ccccc2)C1)c1ccc(OC(F)(F)F)cc1` (stereo not drawn) (10 µM), the “BRD4 median nuclear fluorescence intensity change (log2)” value was determined as 0.144.

Take `CCn1cc(NC(=O)c2cc(-c3ccccc3OC)on2)cn1` (1 µM): the “BRD4 median nuclear fluorescence intensity change (log2)” value was -0.0239.

Regarding `Nc1nc2[nH]cc(CCc3ccc(C(=O)N[C@@H](CCC(=O)O)C(=O)O)cc3)c2c(=O)[nH]1` [pemetrexed] (1 µM), the “BRD4 median nuclear fluorescence intensity change (log2)” value is -0.0162.

`CC(O)CNCc1c2ccccc2c(Cl)c2ccccc12` (stereo not drawn) (1 µM): the “BRD4 median nuclear fluorescence intensity change (log2)” value amounted to 0.064.

For the molecule `CN(C)c1ccc(C(=NC(=O)c2cccc(S(=O)(=O)N3CC4(C)CC3CC(C)(C)C4)c2)c2ccc(N(C)C)cc2)cc1` (stereo not drawn) (10 µM), the “BRD4 median nuclear fluorescence intensity change (log2)” value is -0.000554.

For `CC(=O)NCCc1nc2ccccc2n1CCCOc1cc(C)ccc1C(C)C` (10 µM), the “BRD4 median nuclear fluorescence intensity change (log2)” value was -0.0327.

On to `Cc1sc(NC(=O)CCNC(=O)Cc2ccccc2)nc1-c1ccc(F)cc1` (10 µM), for which the “BRD4 median nuclear fluorescence intensity change (log2)” value is -0.0286.

For the origin of these results see the supplement of paper PMC11098740.
